In PubChem BioAssay AID540276 (National Center for Advancing Translational Sciences (NCATS), 2011):
In all, about 300,000 compounds went through this assay and about 5,400 (1.8%) were called active. Inconclusive means that the source gave no clear call. Such entries were picked first, then a sample of the others. Calls come from the whole dose curve; tested in HEK293 cells. Potencies of inconclusive entries are doubtful fits and often do not repeat.

Experiment: qHTS for inhibitors of binding or entry into cells for Marburg Virus
Conditions: Marburg virus pseudotyped entry inhibition, cell reporter; series mostly up to 37.8 µM
Potency is the fitted concentration of half-maximal effect.

SMILES | Potency
O=C(O)c1ccc(N=Nc2c(-c3ccccc3)[nH]oc2=O)cc1 | inconclusive: 12.6 µM [activator, partial curve, poor fit]
Cc1ccc(CNC(=O)c2nc(SCc3ccc(F)cc3)ncc2Cl)cc1 | inactive
Cc1ccc(NC(=O)CSc2ncc(S(=O)(=O)c3ccc(C(C)C)cc3)c(=O)[nH]2)cc1C | inconclusive: 35.5 µM [activator, single point]
COc1ccc(NC(=O)CCCCC(=O)Nc2ccc(OC)cc2)cc1 | inactive
CC(C)Oc1ccc(C(=O)Nc2cc(S(=O)(=O)N3CCOCC3)ccc2N2CCOCC2)cc1 | inconclusive: 35.5 µM [inhibitor, single point]
Cc1cc(C)c(NC(=O)CSc2nccn2C)c(C)c1 | inactive
COc1cc(C(=O)O[C@H]2C/C(C)=C/CC[C@]3(C)O[C@@H]3C(O)C2C(C)C)cc(OC)c1OC (stereo partly drawn) | inconclusive: 10 µM [inhibitor, partial curve, poor fit]
COCCn1c(SCC(=O)Nc2cccc(NC(C)=O)c2)nc2c([nH]c3ccccc32)c1=O | inactive
Cc1ccc(C(=O)c2cn(Cc3cccc(C)c3)c3nc(C)ccc3c2=O)cc1 | inconclusive: 7.94 µM [inhibitor, partial curve, poor fit]
O=C(CNS(=O)(=O)c1ccccc1)N1CCCC1 | inconclusive: 3.16 µM [inhibitor, single point]
CCN(Cc1ccccc1)c1ccc(/C=N/N2CCOCC2)cc1 | inconclusive: 35.5 µM [inhibitor, single point]
O=C(CS(=O)(=O)Nc1ccc(F)cc1Cl)Nc1ccc(F)cc1Cl | inconclusive: 14.1 µM [inhibitor, single point]
CCCCSC1=C(C#N)C(c2ccccc2C)C(C(=O)OCC)C(=O)N1 (stereo not drawn) | inconclusive: 10.3 µM [inhibitor, partial curve, poor fit]
CCCCN(CCCC)CC(O)Cn1c2ccccc2c(=O)c2ccccc21 (stereo not drawn) | inconclusive: 4.47 µM [inhibitor, full curve, poor fit]
CCOC(=O)C1=C(C)N=c2s/c(=C/c3ccc(OCC(=O)O)cc3)c(=O)n2C1c1cc(OC)c(OC)c(OC)c1 (stereo not drawn) | inconclusive: 0.794 µM [activator, single point]
CCc1ccc(C(=O)Nc2nc(C)cs2)s1 | inconclusive: 12.6 µM [inhibitor, partial curve, poor fit]
COc1ccccc1/C=N/NC(=O)CN(C1=NS(=O)(=O)c2ccccc21)c1ccccc1 | inconclusive: 7.31 µM [activator, partial curve, poor fit]
N/C(=N\OC(=O)CCC1CCCCC1)c1cccc([N+](=O)[O-])c1 | inactive
C=CCc1cccc(CNc2nc3ccccc3n2CCC)c1O | inconclusive: 32.6 µM [inhibitor, single point]
O=c1c2cnn(-c3ccc(F)cc3)c2ncn1Cc1cccc(Cl)c1 | inconclusive: 5.62 µM [inhibitor, partial curve, poor fit]
Cc1c(Cl)c([N+](=O)[O-])nn1CCCC(=O)N1CCN(c2ccccc2)CC1 | inconclusive: 6.51 µM [inhibitor, single point]
CN(C)c1ccc(/C=N/NC(=O)c2cccc(C(=O)N/N=C/c3ccc(N(C)C)cc3)n2)cc1 | inconclusive: 35.5 µM [inhibitor, single point]
O=C(c1cc(-c2ccc(F)cc2)on1)N1CCOCC1 | inconclusive: 0.631 µM [activator, full curve, poor fit]

SMILES | Potency
COc1ccc(CCC(=O)Nc2cc(Cl)ccc2N2CCN(C)CC2)cc1 | inconclusive: 20 µM [inhibitor, single point]
Cc1ccc(-n2c(C)cc(C(=O)CSc3nncs3)c2C)cc1 | inconclusive: 29.1 µM [inhibitor, single point]
O=C(COc1ccc(C(=O)Nc2ccc(Cl)cc2)cc1)NCc1ccccc1 | inactive
CCC(c1nnnn1CCOC)N1CCN(c2cccc(C(F)(F)F)c2)CC1 (stereo not drawn) | inconclusive: 14.1 µM [inhibitor, single point]
Cc1cc(Br)ccc1OCCCCN1CCC(C)CC1 | inconclusive: 12.6 µM [inhibitor, single point]
CCCC(=O)NCCCCNC(=O)CCC | inactive
CCOC(=O)c1ccccc1NS(=O)(=O)c1cnn(CC)c1C | inconclusive: 0.794 µM [activator, single point]
Cc1cc(C(=O)OCC(=O)NCc2ccco2)c(C)n1-c1ccccc1 | inconclusive: 2.24 µM [inhibitor, partial curve, poor fit]
CN(CC(=O)Nc1cccc(F)c1)C(=O)c1ccncc1 | inactive
CCCNC(=O)COc1ncnc2sccc12 | inactive
CC(=O)NCc1ccc(-c2csc(-c3cccs3)n2)cc1 | inconclusive: 1.41 µM [activator, partial curve, poor fit]
O=[N+]([O-])c1ccc(N/N=C/c2ccc[nH]2)cc1 | inconclusive: 10 µM [inhibitor, partial curve, poor fit]
CSc1ccc(/C=C(\C#N)C(=O)NC2CCCCC2C)cc1 (stereo not drawn) | inconclusive: 29.1 µM [inhibitor, single point]
O=c1[nH]c(CSc2ccccn2)nc2ccccc12 | inconclusive: 0.562 µM [activator, full curve, poor fit]
COc1ccc(S(=O)(=O)N(C)c2ccc(C(=O)NCCC(C)C)cc2)cc1 | inactive
CSC1=NSC2=NC(=O)/C(=C\c3cccs3)C(=N)N12 | inconclusive: 2.51 µM [activator, partial curve]
CN(C)C(=O)C[n+]1cccc(/C=N/O)c1 | inconclusive: 0.282 µM [inhibitor, partial curve, poor fit]
O=C(Nc1ccc2c(c1)OCCO2)C(=O)NC1CC1 | inconclusive: 35.5 µM [inhibitor, partial curve, poor fit]
Cc1cc(/C=C2\SC(=S)N(C)C2=O)c(C)n1-c1ccccc1O | inconclusive: 17.8 µM [inhibitor, partial curve, poor fit]
O=C(NC1CCN(Cc2ccccc2)CC1)c1cccc(S(=O)(=O)Nc2ccc(Br)cc2)c1 | inconclusive: 20 µM [inhibitor, partial curve, poor fit]
CCNC(=S)NS(=O)(=O)c1ccc(CC)cc1 | inconclusive: 8.2 µM [activator, partial curve, poor fit]
COc1ccc(C2NC(=O)NC(C)=C2C(=O)OC2CCCCC2)cc1OC (stereo not drawn) | inactive
CC1CCN(c2ccc(NC(=S)NC(=O)c3ccc(-c4cccc([N+](=O)[O-])c4)o3)cc2)CC1 | inactive

SMILES | Potency
O=C(Cc1ccc(Cl)cc1)NNS(=O)(=O)c1ccc([N+](=O)[O-])cc1 | inconclusive: 31.6 µM [activator, single point]
COc1ccc(NC(=S)N(CCN(C)C)C(C)c2ccco2)cc1Cl (stereo not drawn) | inconclusive: 6.31 µM [inhibitor, full curve, poor fit]
CC(C)c1ccc(NC(=O)c2ccccc2NC(=O)C2CCCCC2C(=O)O)cc1 (stereo not drawn) | inactive
CC(=O)c1cccc(N(C(=O)c2ccccn2)C(C(=O)NC2CCCCC2)c2cccs2)c1 (stereo not drawn) | inactive
O=C(/C=C/c1cccc(Cl)c1)Nc1ccncc1 | inactive
Cc1ccc(S(=O)(=O)N2CCC(C(=O)NCCCn3ccnc3)CC2)cc1 | inconclusive: 15.8 µM [activator, single point]
COc1ccc(S(=O)(=O)N2CCOCC2)cc1Cl | inactive
O=C(CF)NC(NC(=S)Nc1cccc([N+](=O)[O-])c1)C(Cl)(Cl)Cl (stereo not drawn) | inactive
O=C(O)c1ccc(Nc2nc3ccccc3n3cnnc23)cc1 | inconclusive: 4.47 µM [activator, partial curve]
Cc1cc(SCC(=O)c2ccc(O)c(O)c2)nc2ccccc12 | inconclusive: 7.08 µM [inhibitor, partial curve]
Nc1ccc2oc3ncccc3c(=O)c2c1 | inactive
CC(C)N1C(=O)/C(=C\c2nc3ccccc3c(=O)n2-c2ccccc2)c2ccccc21 | inconclusive: 10 µM [inhibitor, partial curve, poor fit]
CCOC(=O)c1c(NC(=O)CSc2ncnc3ccccc23)sc(C(C)=O)c1C | inactive
COc1ccc(C2CC(c3ccccc3)=NN2c2ccc(S(N)(=O)=O)cc2)cc1 (stereo not drawn) | inconclusive: 7.08 µM [inhibitor, partial curve, poor fit]
COC(=O)CC=C[C@@H](C)[C@H](NC(=O)OC)c1ccccc1Br | inactive
Cc1ccsc1/C=N/NC(=O)c1ccc2c(c1)OCCO2 | active: 3.16 µM
CCc1nn(CC(=O)NCc2cccnc2)c(=O)c2cc3occc3n12 | inactive
CCOc1cc(CNc2cccc3ccccc23)cc(Br)c1OCC(=O)NC(C)(C)C | inconclusive: 20.6 µM [inhibitor, single point]
COC(=O)C1=C(N)Oc2cc(C)n(CCc3ccccc3)c(=O)c2C1c1cccnc1 (stereo not drawn) | inconclusive: 0.158 µM [inhibitor, full curve, poor fit]
CCOc1ccc(CCNC(=O)COC(=O)c2nccnc2N)cc1OCC | inconclusive: 5.62 µM [activator, partial curve, poor fit]
CCOC(=O)C1=C(C)OC(N)=C(C#N)C1c1c(C)nn(-c2ccccc2)c1Cl (stereo not drawn) | inconclusive: 29.1 µM [inhibitor, single point]
CCCCN(C(=S)Nc1cccc(SC)c1)C1CCN(C(C)=O)CC1 | inconclusive: 11.2 µM [inhibitor, partial curve, poor fit]

3 structures from above, arranged by number of heavy atoms, falling.
SMILES | Potency
CCCCN(C(=S)Nc1cccc(SC)c1)C1CCN(C(C)=O)CC1 | inconclusive: 11.2 µM [inhibitor, partial curve, poor fit]
O=C(Cc1ccc(Cl)cc1)NNS(=O)(=O)c1ccc([N+](=O)[O-])cc1 | inconclusive: 31.6 µM [activator, single point]
O=C(CF)NC(NC(=S)Nc1cccc([N+](=O)[O-])c1)C(Cl)(Cl)Cl (stereo not drawn) | inactive

Part of the list above, tab-delimited.
SMILES	Potency
Cc1cc(SCC(=O)c2ccc(O)c(O)c2)nc2ccccc12	inconclusive: 7.08 µM [inhibitor, partial curve]
Nc1ccc2oc3ncccc3c(=O)c2c1	inactive
